Laboratory results: patent EP1013282A2, “Pharmaceutical and foodstuff compositions containing transferrins and antibacteral agents for potentiating host defence activity and the treatment of infections” (priority 1992, dated 1993)
At least one structure is not confirmed: it was looked up by name or label, or the drawing left a doubt.

Tested on: Escherichia coli c 11
Test: Intraperitoneal E. coli infection in mice: other chemotherapies with or without lactoferrin (Example 5)
Conditions: lactoferrin 0.5 mg/mouse oral, in vivo
Excerpt: Example 5-The antimicrobial activities of chemotherapies were compared with or without lactoferrin treatment. The antimicrobial agents used were new quinolones, aminoglycoside antibiotic, gentamicin, erythromycin, chloramphenicol and minocycline. The efficacy was compared between the controls and lactoferrin groups. Mice strain ddY, four weeks old, were randomly allocated into groups (n=6) and intraperitoneally infected with Escherichia coli c 11 at a dose of 1 x 10^6 cells per mouse. One hour after the injection the chemotherapies and lactoferrin (0.5 mg/mouse) were simultaneously given orally except gentamicin was given subcutaneously since it is unabsorable from the intestinal tract. Evaluation of potentiation of the chemotherapies by lactoferrin is the same as described above. […]

SMILES: CN(C)[C@@H]1C(O)=C(C(N)=O)C(=O)[C@@]2(O)C(O)=C3C(=O)c4c(O)cccc4[C@@](C)(O)[C@H]3C[C@@H]12 [tetracycline]
- potentiation of efficacy of the chemotherapy by lactoferrin: potentiated the efficacy
